Laboratory results from US7056679.
No constants are given. Whether binding was seen depends on the method and setting. Some results given as binding are weak or reduced against the parent protein; the word gives no strength.

Protein sequences, listed by entry. Tags and fused reporters are not part of them.
UniProt Q15004: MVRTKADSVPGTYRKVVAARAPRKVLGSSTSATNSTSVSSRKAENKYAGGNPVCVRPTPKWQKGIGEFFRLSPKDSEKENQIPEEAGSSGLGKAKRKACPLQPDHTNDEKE

Biological target: DGI-2 (UniProt Q15004)
Assay: phage ELISA, coated DGI-2

binding	Binder
binds	LQIVRPAGWKMPGQVGYYIG [DGI-2-20R-3-A9]
binds	GLYRRAGDASVGFSRWGRFDCQVYFSVECLLGSSWGGYS [DGI-2-40F-4-F12]
